The record followed here is article PMC10542381.

By UniProt entry, the sequences of proteins in these tests, tags left out.
UniProt Q15796: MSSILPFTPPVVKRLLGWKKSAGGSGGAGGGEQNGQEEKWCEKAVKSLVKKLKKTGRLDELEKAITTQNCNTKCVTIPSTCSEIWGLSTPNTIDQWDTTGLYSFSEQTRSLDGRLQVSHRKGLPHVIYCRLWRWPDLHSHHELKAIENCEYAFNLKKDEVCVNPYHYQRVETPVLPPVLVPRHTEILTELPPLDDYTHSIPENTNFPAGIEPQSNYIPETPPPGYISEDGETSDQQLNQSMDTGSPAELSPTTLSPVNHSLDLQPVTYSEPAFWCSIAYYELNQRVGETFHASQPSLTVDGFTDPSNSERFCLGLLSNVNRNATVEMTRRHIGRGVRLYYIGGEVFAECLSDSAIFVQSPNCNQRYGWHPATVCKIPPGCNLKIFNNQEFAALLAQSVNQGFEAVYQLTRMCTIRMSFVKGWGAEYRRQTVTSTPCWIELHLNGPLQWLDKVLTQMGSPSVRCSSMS
UniProt P84022: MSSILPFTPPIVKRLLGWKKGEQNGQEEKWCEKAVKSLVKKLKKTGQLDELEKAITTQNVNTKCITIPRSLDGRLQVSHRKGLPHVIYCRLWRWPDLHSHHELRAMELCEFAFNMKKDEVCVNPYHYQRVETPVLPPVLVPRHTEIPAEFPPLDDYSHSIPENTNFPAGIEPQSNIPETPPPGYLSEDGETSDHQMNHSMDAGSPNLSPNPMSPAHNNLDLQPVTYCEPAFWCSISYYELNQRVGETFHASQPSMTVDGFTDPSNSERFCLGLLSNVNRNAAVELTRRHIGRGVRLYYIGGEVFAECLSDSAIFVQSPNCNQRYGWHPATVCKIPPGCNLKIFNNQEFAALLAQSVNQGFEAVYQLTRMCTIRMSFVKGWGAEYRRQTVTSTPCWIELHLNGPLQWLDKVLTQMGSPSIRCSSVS

Results are given in words; binding and its absence hold for the method and conditions named. In cells and extracts the contact can be indirect. Some binding calls cover weakened binding; strength is not graded here.

Test [1] has as its target SMAD2 (human (endogenous in HK2)) (UniProt Q15796). The test is described as follows: co-IP; HK2 cell lysates, Co-IP with anti-SIRT2 or anti-SMAD2 antibody, normal rabbit IgG as control, western blotting; co-IP buffer 20 mM Tris-HCl pH 8.0, 100 mM NaCl, 1 mM EDTA, 0.5% NP-40; 4 °C overnight.
Test [2] addresses SMAD3 (human (endogenous in HK2)) (UniProt P84022). Description: co-IP; HK2 cell lysates, cells without TGF-β; Co-IP with anti-SIRT2 or anti-SMAD3 antibody, normal rabbit IgG as control, western blotting. (In general: Immunoblotting shows a protein as a band on a membrane.)
Test [3] has the same target. Description: co-IP; HK2 cell lysates, cells in the presence of TGF-β; Co-IP with anti-SIRT2 or anti-SMAD3 antibody, normal rabbit IgG as control, western blotting.

B1: SIRT2 (enzyme, UniProt Q8IXJ6 1-389)
chain: MAEPDPSHPLETQAGKVQEAQDSDSDSEGGAAGGEADMDFLRNLFSQTLSLGSQKERLLDELTLEGVARYMQSERCRRVICLVGAGISTSAGIPDFRSPSTGLYDNLEKYHLPYPEAIFEISYFKKHPEPFFALAKELYPGQFKPTICHYFMRLLKDKGLLLRCYTQNIDTLERIAGLEQEDLVEAHGTFYTSHCVSASCRHEYPLSWMKEKIFSEVTPKCEDCQSLVKPDIVFFGESLPARFFSCMQSDFLKVDLLLVMGTSLQVQPFASLISKAPLSTPRLLINKEKAGQSDPFLGMIMGLGGGMDFDSKKAYRDVAWLGECDQGCLALAELLGWKKELEDLVRREHASIDAQSGAGVPNPSTSASPKKSPPPAKDEARTTEREKPQ
For the molecule B1, the binding entry in test [1] was “binds”; in test [2], “no binding (condition: without TGF-β)”; in test [3] it was “binds”.
